Publication PMC4004800, “Preclinical evaluation of marketed sodium channel blockers in a rat model of myotonia discloses promising antimyotonic drugs” (Experimental Neurology, 2014)

Amino acid sequences for entries named in this document (tags omitted).
UniProt P35499, whole entry: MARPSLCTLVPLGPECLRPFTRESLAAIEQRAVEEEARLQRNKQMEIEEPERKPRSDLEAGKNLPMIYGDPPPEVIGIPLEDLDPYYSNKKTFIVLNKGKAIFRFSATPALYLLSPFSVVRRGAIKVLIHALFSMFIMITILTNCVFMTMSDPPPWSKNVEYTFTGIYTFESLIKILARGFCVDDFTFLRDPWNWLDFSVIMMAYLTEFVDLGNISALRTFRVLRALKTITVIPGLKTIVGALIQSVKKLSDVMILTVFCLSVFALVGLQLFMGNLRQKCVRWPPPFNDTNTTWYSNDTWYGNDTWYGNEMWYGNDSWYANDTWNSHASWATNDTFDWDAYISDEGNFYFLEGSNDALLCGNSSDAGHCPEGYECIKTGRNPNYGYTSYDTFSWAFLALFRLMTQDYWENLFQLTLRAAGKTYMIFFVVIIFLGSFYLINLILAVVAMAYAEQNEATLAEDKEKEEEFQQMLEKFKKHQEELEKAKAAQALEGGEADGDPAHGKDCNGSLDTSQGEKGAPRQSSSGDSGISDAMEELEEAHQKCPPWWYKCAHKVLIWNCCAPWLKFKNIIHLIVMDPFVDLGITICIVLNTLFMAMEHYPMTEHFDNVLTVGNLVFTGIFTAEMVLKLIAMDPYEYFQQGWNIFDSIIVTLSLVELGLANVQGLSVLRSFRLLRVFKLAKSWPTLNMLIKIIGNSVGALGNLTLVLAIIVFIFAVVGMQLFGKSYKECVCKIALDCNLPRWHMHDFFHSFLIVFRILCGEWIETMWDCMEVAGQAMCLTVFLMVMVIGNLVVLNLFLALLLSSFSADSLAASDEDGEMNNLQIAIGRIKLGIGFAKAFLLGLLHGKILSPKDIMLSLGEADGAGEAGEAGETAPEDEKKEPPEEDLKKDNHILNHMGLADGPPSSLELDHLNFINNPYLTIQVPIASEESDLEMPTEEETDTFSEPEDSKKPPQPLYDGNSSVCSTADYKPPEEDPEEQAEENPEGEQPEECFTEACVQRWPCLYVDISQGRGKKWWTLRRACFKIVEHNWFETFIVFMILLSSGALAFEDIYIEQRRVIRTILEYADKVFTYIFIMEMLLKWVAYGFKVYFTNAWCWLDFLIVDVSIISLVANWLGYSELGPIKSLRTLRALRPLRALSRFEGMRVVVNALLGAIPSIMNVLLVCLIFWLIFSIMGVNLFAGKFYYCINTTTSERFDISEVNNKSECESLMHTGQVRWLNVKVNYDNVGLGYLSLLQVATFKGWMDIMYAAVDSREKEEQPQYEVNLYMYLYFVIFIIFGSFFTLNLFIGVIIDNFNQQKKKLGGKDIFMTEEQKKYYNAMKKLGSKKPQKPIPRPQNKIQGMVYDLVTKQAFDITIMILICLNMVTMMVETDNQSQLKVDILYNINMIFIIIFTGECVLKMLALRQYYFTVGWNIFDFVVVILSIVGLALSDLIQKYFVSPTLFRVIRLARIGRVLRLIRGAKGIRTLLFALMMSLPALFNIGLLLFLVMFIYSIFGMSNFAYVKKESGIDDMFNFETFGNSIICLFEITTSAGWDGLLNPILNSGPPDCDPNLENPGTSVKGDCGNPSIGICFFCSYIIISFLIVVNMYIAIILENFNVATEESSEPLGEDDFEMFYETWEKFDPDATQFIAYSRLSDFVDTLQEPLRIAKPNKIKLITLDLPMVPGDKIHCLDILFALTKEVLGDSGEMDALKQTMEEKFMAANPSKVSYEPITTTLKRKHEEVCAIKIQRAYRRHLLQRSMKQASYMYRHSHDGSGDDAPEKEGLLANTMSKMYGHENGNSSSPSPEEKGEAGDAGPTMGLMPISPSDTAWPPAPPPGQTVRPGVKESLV

Target: T1, hNav1.4 (human skeletal muscle sodium channel) (Homo sapiens, UniProt P35499)
T1 construct: gene SCN4A; alpha subunit permanently transfected in HEK293 cells; no beta subunit mentioned
Test: whole-cell patch clamp, sodium current in HEK293
Assay type: cell-based
Settings: read-out: IC50 (μM) / 50 Hz, hp - 90 mV
From the text: whole-cell patch clamp, sodium current in HEK293 on hNav1.4 (human skeletal muscle sodium channel)

- IC50: ~5 µM
SMILES: Cc1ccccc1C(OCCN(C)C)c1ccccc1 (stereo not shown) [Orphenadrine]
